Reference: US11857513B2, “Selective inhibitor of exon 20 insertion mutant EGFR” (Taiho Pharmaceutical Co., Ltd., priority 2016, dated 2024)
For at least one compound, name, drawing or mass did not settle the structure.

System: H1975-EGFRinsSVD-Luc cells
Assay: Life-extending effect, nude mice transplanted with H1975-EGFRinsSVD-Luc cells in the lung
Settings: lung transplant, compound A 100, 200 mg/kg/day, afatinib 20 mg/kg/day
Protocol: H1975-EGFRinsSVD-Luc strain was established by introducing a luciferase into H1975-EGFRinsSVD, which is a human mutant EGFR-introduced cell line. A pJTI (trademark) Fast DEST vector, which was prepared by encoding a Luciferase into NCI-H1975-EGFRinsSVD cells, was introduced into […], together with a pJTI (trademark) PhiC31 integrase expression vector, by electroporation using an Amaxa (trademark) Cell Line Nucleofector (trademark) Kit R, followed by selection using hygromycin B (Nacalai Tesque Inc.).
In evaluation of the life-extending effect, an equivalent amount of Matrigel was added to a suspension of cultured H1975-EGFRinsSVD-Luc cells to prepare a cell suspension, and the cell suspension was transplanted into the right lung of nude mice. On day 6 after transplantation, all of the living mice were administered a luciferin through the tail vein, and allocated into groups, 9 mice for each group, by stratified randomization such that the average luminescence intensity between the groups was uniform. […] The maximum tolerated dose was determined in accordance with the “Guidelines Involving Experimental Neoplasia Proposals in Mice and Rats” of the National Cancer Institute (NCI), from a humanitarian perspective.
To evaluate the life-extending effect, the survival period after transplantation was observed, and the survival time of each mouse was determined. […]

CN(C)C/C=C/C(=O)Nc1cc2c(Nc3ccc(F)c(Cl)c3)ncnc2cc1O[C@H]1CCOC1 [Afatinib, afatinib, reference compound]
life-extending effect: did not exhibit such a life-extending effect
